Measured values as given in patent US8133984B2, “Oligonucleotides comprising signalling pairs and hydrophobic nucleotides, stemless beacons, for detection of nucleic acids, methylation status and mutants of nucleic acids” (PENTABASE ApS, priority 2006, dated 2012).

Test system: Bgal_WT_tar oligo target
Assay: Affinity of stemless probes to single stranded oligo target (melt 25-90° C.)
Format: binding
Settings: signal at 25 degrees divided by signal at 90 degrees
Text: This example illustrates how stemless beacons comprising hydrophobic modifications of the structure: X—Y-Q where X is a backbone monomer unit linked to the oligo by phosphordiester bonds and of the structure —O—CH2—CH2—O—, Y is a —CH2—O—CH2— linker and Q is 1′-pyrene, will have higher affinity towards a fully complementary target sequence than a probe not comprising said hydrophobic modifications.
It can be seen from FIG. 13 that all stemless beacons have the similar or higher affinity for the complementary oligo nucleotide target compared to the corresponding DNA. Furthermore it can be calculated that all of the stemless beacons presented in this example (exclusive probe—1) have a similar or higher signal-to-noise ratio than the DNA probe without hydrophobic modifications (signal at 25 degrees divided by signal at 90 degrees).

Substance	Signal-to-noise
5′-Fam A1C CGA CCC AGC GCC 1C BHQ1-3′ [Probe _2]	7.26
5′-Fam ACC G1A CCC AGC 1GC CC BHQ1-3′ [Probe _5]	6.48
5′-Fam ACC GA1 CCC AG1 CGC CC BHQ1-3′ [Probe _6]	5.99
5′-Fam ACC GAC 1CC A1G CGC CC BHQ1-3′ [Probe _7]	5.88
